Reference: PubChem BioAssay AID2685 (National Center for Advancing Translational Sciences (NCATS), 2010)
This is one part of the list. These are further read-outs of the screen, such as a control signal, another cell line or another target. No call is given for them. Most of these compounds were active or inconclusive in the main read-out, so they are no random draw. The note in brackets gives the kind of curve behind each potency; many fits are weak.

Experiment: qHTS Assay for Lipid Storage Modulators in Drosophila S3 Cells;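 on cell number change: cells counted by Cell Tracker Red CMTPX staining in the red channel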
Conditions: BODIPY lipid droplet fluorescence, 18-24 h; for cell number change: measured here: cell count max response, cells fed with added oleic acid
Procedure, shortened: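 Laser-scanning cytometry quantifies lipid droplet accumulation (500–530 nm total intensity; droplet/cell object ratio) in oleic acid-fed (400 uM added) Drosophila S3 cells treated with a concentration series. 20 uM Triacsin C defined 100% inhibition.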

[1] = measured here: lipid fluorescence (Fed channel) AC50, cells fed with added oleic acid
[2] = measured here: cell number channel AC50, cells fed with added oleic acid

Which cell number change does the source give for `COc1ccc(CCNC(=O)COC(=O)c2cc(=O)c3ccccc3o2)cc1` here?
The cell number change was 20.3%.

What about the AC50 [1] of the same compound?
The AC50 was 0.326 µM [rising, full curve, poor fit].

For `CCSc1nc2c(c(=O)[nH]1)C(c1cccnc1)C(C(=O)OC)=C(C)N2` (stereo not drawn), which cell number change is on record?
The cell number change was 14.6%.

And the AC50 [1]?
Its AC50 is 9.2 µM [rising, partial curve, poor fit].

Which results are given for `CC(=O)N1CCN(C(=O)COc2ccc(Br)cc2)CC1`?
cell number change: -162%; AC50 [2]: 29.1 µM [falling, single point]

What does the source list for `COc1ccc(/C=N/NC(=O)c2ccc3nc[nH]c3c2)cc1OC`?
cell number change: 17.6%; AC50 [1]: 0.259 µM [rising, full curve, poor fit]

Which cell number change does the source give for `CCNS(=O)(=O)c1ccc(NC(=O)Cn2cc([N+](=O)[O-])cn2)cc1` here?
Its cell number change is -30.3%.

What about the AC50 [2] of the same compound?
Its AC50 is 3.26 µM [falling, single point].

With `COc1ccc2occ(C(=O)c3ccc(N)cc3)c2c1` as the compound, how does the cell number change read?
The cell number change was 3.55%.

And the AC50 [1]?
Its AC50 is 4.61 µM [rising, full curve, poor fit].

Which cell number change does the source give for `O=C1CC(=O)Nc2cc(S(=O)(=O)N3CCN(c4cccc(C(F)(F)F)c4)CC3)ccc2N1` here?
Its cell number change is -11.5%.

And the AC50 [1]?
The AC50 was 0.00517 µM [falling, full curve, poor fit].

What does the source list for `CCCCn1c(N)c(N(CC)C(=O)c2cccc(F)c2)c(=O)[nH]c1=O`?
cell number change: -0.84%; AC50 [1]: 0.366 µM [rising, full curve]

For `COC(=O)C1(C)NC(c2ccccc2C)C2C(=O)N(c3ccccc3)C(=O)C21` (stereo not drawn), which cell number change is on record?
Its cell number change is 12.3%.

What about the AC50 [1] of the same compound?
The AC50 was 6.51 µM [falling, single point].

What does the source list for `O=C(COC(=O)c1ccccn1)Nc1ccccc1OC(F)F`?
cell number change: 14.9%; AC50 [1]: 23.1 µM [rising, single point]

Which results are given for `CC(C)Oc1ccc(/C=N/NC(=O)c2nnn(-c3nonc3N)c2CN(C)c2ccccc2)cc1`?
cell number change: 41%; AC50 [2]: 7.31 µM [rising, single point]; AC50 [1]: 29.1 µM [falling, single point]

What does the source list for `CCSc1ccc2nnc(-c3cccs3)n2n1`?
cell number change: -7.52%; AC50 [2]: 0.00411 µM [falling, full curve, poor fit]

Which cell number change does the source give for `CC(NC(=O)c1ccc(F)cc1F)C1CC2CCC1C2` (stereo not drawn) here?
The cell number change was -7.98%.

What about the AC50 [1] of the same compound?
Its AC50 is 4.11 µM [falling, full curve, poor fit].

With `COc1cc(OC)nc(Oc2cccc(C(F)(F)F)c2)n1` as the compound, how does the cell number change read?
The cell number change was 7.8%.

What about the AC50 [1] of the same compound?
The AC50 was 14.6 µM [rising, single point].

Which results are given for `O=C(Nc1ccccc1N1CCCCC1)c1cccs1`?
AC50 [2]: 4.11 µM [rising, partial curve]; AC50 [1]: 6.51 µM [rising, partial curve]

Which cell number change does the source give for `CCc1noc(C)c1C(=O)N1CCN(S(=O)(=O)c2ccc(Cl)cc2)CC1` here?
The cell number change was 4.23%.

What about the AC50 [1] of the same compound?
Its AC50 is 6.51 µM [rising, single point].
